# Laboratory results reported in patent publication US10544151B2, “Compounds and uses thereof” (Kala Pharmaceuticals, Inc., priority 2013, dated 2020).
# At least one structure is not confirmed: it was looked up by name or label, or the drawing left a doubt.
# Assay: Physical and chemical stability of I-2 solutions at room temperature
# Assay type: physicochemical
# Conditions: for API % (w/v) at t = tfinal: filtrate
# Protocol: Solutions of I-2 were formulated with F127 or Tween 80, and under a range of pH values. Briefly, I-2 was first completely solubilized using an acidic solution (0.1 N HCl) at a high concentration of ˜5% (wiv). The final formulation was diluted to a solution consisting of 0.5% (wiv) I-2 into buffered solution containing F127 or Tween 80 as described in Table 5. Following dilution, the pH of the formulations was measured using pH indicator strips (PEHANON) and confirmed to be within expected range (±0.5 units of target pH).
# Physical and chemical stability of the solutions at room temperature (20-25° C.) were assessed after 7-10 days (tfinal). Physical instability in a solution can manifest as the precipitation and sedimentation of the drug of interest and excipients over time. To assess physical stability, the formulations at tfinal were first filtered through a 300 kDa modified polyethersulfone filter membrane (Nanosep) to remove any precipitate in the solution. The concentration of I-2 in the filtrates was then measured and compared to that at t=0. The purity of I-2 in the unfiltered solution was also evaluated at tfinal, to further confirm chemical stability. This parameter is defined by the area under the signal peak that is attributed to compound I-2 as a percentage of all peaks reported by in the sample by HPLC (% peak area).
# [1] = F127 (0.5%), 20 mM Borate, target pH 8, 7 days at 20-25° C.
# [2] = F127 (0.5%), 20 mM Citrate, target pH 6, 7 days at 20-25° C.
# [3] = F127 (0.5%), 40 mM Borate, target pH 8, 7 days at 20-25° C.
# [4] = F127 (0.5%), 1x PBS, target pH 7, 7 days at 20-25° C.
# [5] = Tween 80 (0.5%), 20 mM Citrate, target pH 6, 10 days at 20-25° C.
structure (smiles),measurement,setting,value
Cc1cc(C(=O)Nc2cc(Oc3ccc4nc(NC(=O)CN5CC[C@H](N(C)C)C5)cn4n3)ccc2C)n(C)n1 [Compound I-2],% concentration change,[1],−5.6%
same,API % (w/v) at t = tfinal,[1],0.51 % (w/v)
same,% concentration change,[2],−3.8%
same,API % (w/v) at t = tfinal,[2],0.50 % (w/v)
same,API % peak area at t = tfinal,"F127 (0.5%), 20 mM Citrate, target pH 6, 7 days, unfiltered, HPLC",98.0 % peak area
same,% concentration change,[3],0.0%
same,API % (w/v) at t = tfinal,[3],0.52 % (w/v)
same,% concentration change,[4],−1.9%
same,API % (w/v) at t = tfinal,[4],0.51 % (w/v)
same,% concentration change,[5],−2.2%
same,API % (w/v) at t = tfinal,[5],0.44 % (w/v)
same,concentration of I-2 after storage as % of original concentration at t=0,"all solution formulations except 20 mM Tris, 7-10 days storage at room temperature",> 94%
